Screening data, single-dose tests

Chains of the proteins cited; added tags and fusions are not shown.
UniProt I6X8D2, whole entry: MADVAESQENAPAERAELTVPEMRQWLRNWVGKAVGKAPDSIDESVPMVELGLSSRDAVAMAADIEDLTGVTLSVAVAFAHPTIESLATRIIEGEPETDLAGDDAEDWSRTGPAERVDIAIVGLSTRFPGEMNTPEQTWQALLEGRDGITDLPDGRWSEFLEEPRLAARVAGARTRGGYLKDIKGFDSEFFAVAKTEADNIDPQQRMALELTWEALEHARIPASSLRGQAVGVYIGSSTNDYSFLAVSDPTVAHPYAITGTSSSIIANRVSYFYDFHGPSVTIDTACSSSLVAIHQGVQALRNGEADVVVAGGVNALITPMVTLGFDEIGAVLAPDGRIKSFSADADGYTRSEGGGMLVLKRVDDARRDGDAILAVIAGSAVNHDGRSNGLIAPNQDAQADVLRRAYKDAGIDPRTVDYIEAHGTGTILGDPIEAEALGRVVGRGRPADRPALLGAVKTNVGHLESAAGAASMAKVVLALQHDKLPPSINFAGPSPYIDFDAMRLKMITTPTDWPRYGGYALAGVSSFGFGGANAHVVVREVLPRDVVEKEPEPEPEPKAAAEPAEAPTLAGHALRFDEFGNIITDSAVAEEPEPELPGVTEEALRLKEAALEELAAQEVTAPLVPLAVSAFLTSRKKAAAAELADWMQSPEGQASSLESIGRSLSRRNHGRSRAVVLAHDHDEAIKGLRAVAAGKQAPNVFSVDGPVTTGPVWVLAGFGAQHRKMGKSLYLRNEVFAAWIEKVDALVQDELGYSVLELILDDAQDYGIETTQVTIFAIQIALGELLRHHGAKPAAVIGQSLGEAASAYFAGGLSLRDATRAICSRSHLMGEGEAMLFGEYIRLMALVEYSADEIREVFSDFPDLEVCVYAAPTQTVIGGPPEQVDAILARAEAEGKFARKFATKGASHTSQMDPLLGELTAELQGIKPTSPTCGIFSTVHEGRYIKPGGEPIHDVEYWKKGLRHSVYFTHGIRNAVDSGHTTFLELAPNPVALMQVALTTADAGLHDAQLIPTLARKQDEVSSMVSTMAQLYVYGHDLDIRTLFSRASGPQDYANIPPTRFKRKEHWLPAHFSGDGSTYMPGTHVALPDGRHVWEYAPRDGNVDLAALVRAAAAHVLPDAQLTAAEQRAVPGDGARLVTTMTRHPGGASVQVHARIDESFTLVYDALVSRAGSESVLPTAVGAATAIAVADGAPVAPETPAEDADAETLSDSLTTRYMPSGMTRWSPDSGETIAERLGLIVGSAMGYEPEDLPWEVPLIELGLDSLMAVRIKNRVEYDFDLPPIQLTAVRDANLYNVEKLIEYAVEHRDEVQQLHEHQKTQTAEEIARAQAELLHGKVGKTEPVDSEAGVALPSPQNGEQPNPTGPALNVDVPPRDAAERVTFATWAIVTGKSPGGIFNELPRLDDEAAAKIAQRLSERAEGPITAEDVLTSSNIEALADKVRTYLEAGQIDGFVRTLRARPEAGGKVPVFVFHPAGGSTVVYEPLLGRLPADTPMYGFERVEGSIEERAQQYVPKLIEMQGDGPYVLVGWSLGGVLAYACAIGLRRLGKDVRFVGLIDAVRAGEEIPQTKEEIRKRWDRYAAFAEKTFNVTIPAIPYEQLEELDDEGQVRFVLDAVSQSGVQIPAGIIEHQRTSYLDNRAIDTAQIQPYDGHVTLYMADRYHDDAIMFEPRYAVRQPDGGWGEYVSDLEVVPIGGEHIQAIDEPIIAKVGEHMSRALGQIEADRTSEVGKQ
UniProt P9WNZ1, whole entry: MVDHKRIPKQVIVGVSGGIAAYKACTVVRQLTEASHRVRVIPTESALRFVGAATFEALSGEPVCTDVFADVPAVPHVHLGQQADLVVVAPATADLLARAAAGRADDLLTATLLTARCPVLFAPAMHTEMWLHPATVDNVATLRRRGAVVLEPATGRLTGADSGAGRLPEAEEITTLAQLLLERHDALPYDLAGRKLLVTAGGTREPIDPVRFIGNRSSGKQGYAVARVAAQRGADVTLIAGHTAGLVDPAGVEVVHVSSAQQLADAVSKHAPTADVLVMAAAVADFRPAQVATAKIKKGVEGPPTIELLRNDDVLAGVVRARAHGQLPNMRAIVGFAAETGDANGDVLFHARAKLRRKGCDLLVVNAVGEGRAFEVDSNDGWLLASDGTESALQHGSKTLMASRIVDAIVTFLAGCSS
UniProt P9WPC5, whole entry: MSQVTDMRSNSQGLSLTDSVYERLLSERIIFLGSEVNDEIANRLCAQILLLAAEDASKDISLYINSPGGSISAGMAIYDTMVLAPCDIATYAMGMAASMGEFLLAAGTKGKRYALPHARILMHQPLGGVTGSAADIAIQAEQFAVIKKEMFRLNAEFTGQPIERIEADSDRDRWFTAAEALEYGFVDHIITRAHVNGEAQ
UniProt P9WPC3, whole entry partner: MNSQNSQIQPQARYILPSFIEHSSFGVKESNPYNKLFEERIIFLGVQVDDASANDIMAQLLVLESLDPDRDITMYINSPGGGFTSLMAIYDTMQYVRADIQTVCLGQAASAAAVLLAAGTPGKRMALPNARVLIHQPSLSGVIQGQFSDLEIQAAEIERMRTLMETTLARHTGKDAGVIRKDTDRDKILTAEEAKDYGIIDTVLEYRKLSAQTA
UniProt P9WFT3, whole entry: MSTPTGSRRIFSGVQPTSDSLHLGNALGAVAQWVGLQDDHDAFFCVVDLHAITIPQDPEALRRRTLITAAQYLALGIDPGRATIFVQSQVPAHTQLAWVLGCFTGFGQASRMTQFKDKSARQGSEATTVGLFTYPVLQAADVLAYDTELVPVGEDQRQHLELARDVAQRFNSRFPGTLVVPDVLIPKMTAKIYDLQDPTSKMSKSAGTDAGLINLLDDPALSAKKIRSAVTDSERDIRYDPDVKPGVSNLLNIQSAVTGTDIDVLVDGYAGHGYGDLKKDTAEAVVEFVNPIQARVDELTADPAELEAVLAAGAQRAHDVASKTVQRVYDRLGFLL

A: 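Polyketide synthase Pks13, Mycobacterium tuberculosis (UniProt I6X8D2). Enzyme assay of the thioesterase domain of polyketide synthase 13; the read-out is not stated. Compounds at 30 µM. Higher reads as stronger inhibition (inferred from which compounds were picked for retests). About 67,000 compounds were tested under these conditions; 0.46% (about 300) showed 50% or more at least once.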
B: 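Assay of Toxoplasma gondii numbers, read through their beta-galactosidase reporter with a colour substrate. Tested at 10 µM. Higher reads as fewer parasites (inferred from which compounds were picked for retests). About 67,000 compounds were tested under these conditions; 0.38% (about 260) showed 50% or more at least once.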
C: 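Coenzyme A biosynthesis protein CoaBC, Mycobacterium tuberculosis (UniProt P9WNZ1). Enzyme assay of CoaBC with a phosphate dye (Biomol Green) read at 650 nm. Concentration: 30 µM. Direction is inferred from only a few compounds that gave an IC50; most scored high, so higher reads as stronger inhibition. Most strong results did not repeat in a second test. About 67,000 compounds were tested under these conditions; 0.06% (about 40) showed 50% or more at least once.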
D: 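Protease assay of ClpP1P2, read by the AMC dye that it sets free. Target: ClpP1P2, Mycobacterium tuberculosis (UniProt P9WPC5 and UniProt P9WPC3). Compounds at 50 µM. Higher reads as stronger inhibition, judged from the few compounds that gave an IC50. Most other retested compounds had strongly negative values. About 69,000 compounds were tested under these conditions; 0.015% (about 10) showed 50% or more at least once.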
E: 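Cell assay of Leishmania donovani living inside macrophages; the read-out is not stated. Compounds at 30 µM. The record gives no direction; compounds that gave an IC50 in retests scored well above the rest, so higher reads as stronger inhibition. Of about 69,000 compounds tested this way, about 1,000 (1.5%) reached 50% or more in at least one test.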
F: 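Tryptophan-tRNA ligase, Mycobacterium tuberculosis (UniProt P9WFT3). Enzyme assay of tryptophanyl-tRNA synthetase; the read-out is not stated. Concentration: 10 µM. Direction is not recorded; retested compounds ran higher, which suggests that high means inhibition. Size under these conditions: about 65,000 compounds, about 64 of them at 50% or above in at least one test.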

Each number is a percent effect as filed.
The controls that fix the scale are not given in the record; negative values are as filed.
The compounds are a random part of those screened.
Two or more numbers in one place are separate tests of the same structure; such repeats can differ widely.
A dash means the value is not listed here; it may have been measured.

compound	A	B	C	D	E	F
CC(=O)Nc1ccc(C(=O)N(C)Cc2ccc(F)cc2F)s1	9.354	9.798	2.945	13.25	41.29	0.5141
COc1cc(CN)c(OC)c2c1OCO2	-17.4	-	-0.6424	4.24	-	-0.764
CCOc1ccnc(N2CCN(C(=O)c3cn[nH]c3C)CC2)n1	-14.13	17.53	1.312	-8.78	-2.359	14.44
Cc1cnn(CC2CCCCN2C(=O)c2ccc3c(c2)COC3)c1 (stereo unspecified)	-13.11	0.7598	4.439	-21.05	19.49	-5.517
COc1ccc(CC(=O)NCCCc2nnc3nc(C)cc(C)n23)cc1	-4.446	18.34	0.9685	-22.4	-28.49	0.1897
CC(=O)N1CC[C@H]2OCC[C@@]2(C(=O)NCCc2ccccn2)C1	-18.08	-	-0.1287	-2.839	-	0.7267
Cc1cc(=O)[nH]cc1C(=O)N1Cc2ccccc2N(C)CC1C (stereo unspecified)	2.762	2.249	12.73	-6.536	-24.09	-0.1468
CC(=O)N1CCc2nc(C3CCN(c4ncccn4)C3)ncc2C1 (stereo unspecified)	4.946	-1.8	1.703	5.096	6.729 & 2.165	-2.029
COC(=O)CCCn1ccnc1-c1ccccc1	-8.228	8.17	11	9.184	25.92	-0.7452
Cc1nccn1CCC1CCN(C(=O)C2CC3(CCNCC3)CN2)CC1 (stereo unspecified)	-11.6	-13.74	7.901	-3.071	11.35	-6.108
Cc1ccc(CN2CCc3onc(C(=O)N4CCCC4)c3C2)o1.O=C(O)C(F)(F)F	-	8.085	-	-	44.57	-
CN(Cc1nc(Cc2cccc(C(F)(F)F)c2)no1)C1CCCCC1	-17.93	17.17	7.16	-6.585	-4.279	-4.855
Cl.Cl.Cn1nc(C2CNCCO2)cc1CCOc1ccc(Cl)cc1 (stereo unspecified)	-	20.35	-	-	-66.77	-
CN(C)C(CNC(=O)c1ccc(-n2cnnn2)cc1)c1ccccc1Cl (stereo unspecified)	-15.56	11.36	-2.87	-18.56	52.55	-1.004
CN(C)c1ccnc(N2CCC(NCCOc3ccccc3)CC2)n1	-31.21	34.95	-30.66	14.39	79.37	47.67
Cc1nc(CN2CCCC2Cn2cccn2)nc2ccccc12 (stereo unspecified)	2.865	-17.41	8.759	4.495	-63.27	2.251
Cc1nnc([C@H]2C[C@@H]3CCN(C(=O)C4CCOCC4)C[C@H]3O2)[nH]1	-32.27	-	-	-2.811	-	0.1079
CN(CCCc1cnn(C)c1)C(=O)C1CCOC1 (stereo unspecified)	-8.436	-1.533	-4.478	3.954	-4.976	-0.6415
Cn1cnnc1S(=O)(=O)C1CCN(S(=O)(=O)c2ccc(F)c(Cl)c2)CC1	-11.47	-1.314	-6.61	-13.54	20.94	-2.21
CSCC(C)(O)CNS(=O)(=O)c1cccc(Cl)c1 (stereo unspecified)	-10.61	-2.826	4.97	4.994	18.54	4.558
Cc1cccc(CN2CCc3onc(Cn4cccc4)c3C2)n1	10.66	-	-0.2439	2.946	-	-
Cc1ccccc1CNC(=O)c1ccccc1-n1cnc(CN)c1	10.48	14.35	0.4843	4.114	19.44 & 7.989	-
O=C(CC1NC(N2CCc3ccccc32)=NC1=O)Nc1ccc(Cl)cc1 (stereo unspecified)	-12.59	-2.47	0.2301	-28.08	9.68	-7.148
CCOc1ccc(S(=O)(=O)NC(=O)CC2CCCO2)cc1 (stereo unspecified)	-13.06	22.46	-1.979	-24.23	-1.404	4.943
CC(C)NC(=O)c1ccc2nnc(C3CN(C)CCN3C)n2c1 (stereo unspecified)	-18.27	-	0	8.818	-	-10.55
Cc1cc(C)n(CC(=O)N2CCCC(c3cc4cccnc4[nH]3)C2)n1 (stereo unspecified)	7.503	-3.592	-13.62	-10.52	30.18	-5.789
O=C(O)C(F)(F)F.[H][C@@]12CN(Cc3sccc3C)C[C@@H](C(=O)NCCOC)[C@]1([H])CCO2	-	-1.775	-	-	0.6112	-
CN(C)CCN1CCCC12CCN(C(=O)c1ccco1)CC2.O=C(O)C(F)(F)F.O=C(O)C(F)(F)F	-	-5.86	-	-	2.839	-
Cc1cnc(C(=O)N2CCN(C(=O)CC(C)C)[C@@H]3CS(=O)(=O)C[C@@H]32)cn1	-26.7	-	5.854	-3.254	-	3.396

Some entries from above, unchanged:

compound,A,B,C,D,E,F
CN(CCCc1cnn(C)c1)C(=O)C1CCOC1 (stereo unspecified),-8.436,-1.533,-4.478,3.954,-4.976,-0.6415
Cc1nnc([C@H]2C[C@@H]3CCN(C(=O)C4CCOCC4)C[C@H]3O2)[nH]1,-32.27,-,-,-2.811,-,0.1079

Data taken from ChEMBL document CHEMBL3988442, “University of Dundee, Small-Polar-MMV Screening Library” (2021).